The campaign covered roughly 360,000 compounds. About 780 (0.22%) were called active. Inconclusive means that the source gave no clear call. Such entries were picked first, then a sample of the others. Cut-off read from the data, not from the text of the source: active = inhibition above about 35% (passing the limit was not always enough); inconclusive = no clear call, values can overlap the other calls.
system: Botulinum neurotoxin type F light chain protease (Clostridium botulinum); experiment: BoNT/F light chain protease inhibitors, primary screen, biochemical, flow cytometry, MLPCN library (AID 588497); conditions: Multiplex microsphere protease cleavage assay, at 10 µM, hits give high values; note: plate controls were buffer without enzyme for full effect and enzyme alone for no effect

Question: How did the inhibition turn out when `COc1ccc(N2CCN(C3CCCN(Cc4ccccc4OCCO)C3)CC2)cc1` (centres undefined) was run?
Answer: Its inhibition is inconclusive: 11%.

Question: With `Cc1cc(NC(=O)CSc2nc3ccccc3n2CC(=O)N2CCC(C)CC2)no1` as the compound, how does the inhibition read?
Answer: The inhibition was inactive: 10.4%.

Question: Which inhibition does the source give for `O=C(c1ccccc1)c1cn(CC(=O)N2CCCC2)c2ccccc12` here?
Answer: Its inhibition is inactive: 4.4%.

Question: With `Cc1cc(N2CCOCC2)n2ncc(-c3ccccc3Cl)c2n1` as the compound, how does the inhibition read?
Answer: Its inhibition is inconclusive: 5.4%.

Question: With `COc1ccc(Cl)cc1NC(=O)c1cc(-c2ccccc2)on1` as the compound, how does the inhibition read?
Answer: The inhibition was inconclusive: -13.9%.

Question: With `CC(C)CCC(CC(C)O)C(=O)NNC(=S)Nc1ccccc1` (centres undefined) as the compound, how does the inhibition read?
Answer: Its inhibition is inconclusive: -7.9%.

Question: `Cc1cc(OCC(=O)NCCCN2CCOCC2)cc(C)c1Cl` was tested. Which inhibition did it give?
Answer: Its inhibition is inconclusive: -21.4%.

Question: For `Cc1ccc(C(=O)Nc2ccccc2N2CCCCC2)cc1`, which inhibition is on record?
Answer: Its inhibition is inconclusive: -28.3%.

Question: With `CCCc1cc(NCc2ccccn2)n2nc(C)c(-c3ccccc3)c2n1` as the compound, how does the inhibition read?
Answer: Its inhibition is inconclusive: -36.7%.

Question: For `COCC(=O)N(CCc1ccc(OC)cc1)Cc1nc2ccccc2c(=O)[nH]1`, which inhibition is on record?
Answer: The inhibition was inconclusive: 16.5%.

Question: Which inhibition does the source give for `COC(=O)c1[nH]c2ccccc2c1NC(=O)c1c(F)cccc1F` here?
Answer: Its inhibition is inconclusive: -90.8%.

Question: `c1ccc(OCCCCn2cnc3ccccc32)cc1` was tested. Which inhibition did it give?
Answer: Its inhibition is inactive: -3.4%.

Question: `CCOc1ccc(C(=O)C[n+]2cccc3cc(C)ccc32)cc1` was tested. Which inhibition did it give?
Answer: Its inhibition is active: 79.2%.

Question: `COc1ccc(N2C(=O)c3cccc4c(N(C)CCO)ccc(c34)C2=O)cc1` was tested. Which inhibition did it give?
Answer: Its inhibition is inconclusive: 2.9%.

Question: How did the inhibition turn out when `CN1CCN(C(=O)c2ccc(COc3cc(Cl)ccc3Cl)o2)CC1` was run?
Answer: Its inhibition is inactive: 5.2%.

Question: For `CC1=C(C(=O)OCCCBr)C(c2ccc3c(c2)OCO3)NC(=O)N1` (centres undefined), which inhibition is on record?
Answer: The inhibition was inconclusive: 13.9%.

Question: `O=C(c1ccco1)N1CCN(C(=S)Nc2ccccc2C(F)(F)F)CC1` was tested. Which inhibition did it give?
Answer: Its inhibition is inactive: -2.8%.

Question: How did the inhibition turn out when `CCOC(=O)c1cc(CC)sc1NC(=O)CN1CCN(C(=O)c2ccco2)CC1` was run?
Answer: The inhibition was inactive: -2.3%.

Question: `O=C(Cn1c(=O)cnc2ccccc21)N1CCN(S(=O)(=O)c2cccc([N+](=O)[O-])c2)CC1` was tested. Which inhibition did it give?
Answer: The inhibition was inconclusive: 14.3%.

Question: How did the inhibition turn out when `CCCCNC(=O)N1CCC(CCC(=O)N(C)Cc2ccccc2)CC1` was run?
Answer: Its inhibition is inconclusive: 28.4%.

Question: `CCCC(C)C(=O)Nc1nnc(C)s1` (centres undefined) was tested. Which inhibition did it give?
Answer: Its inhibition is inconclusive: -18.2%.

Question: With `Cc1ccnc(OC(C(=O)O)C(OCCc2ccccc2)(c2ccccc2)c2ccccc2)n1` (centres undefined) as the compound, how does the inhibition read?
Answer: The inhibition was inconclusive: 14.1%.

Question: With `NC(=O)COn1c(SCC(N)=O)nc2ccccc2c1=O` as the compound, how does the inhibition read?
Answer: The inhibition was inconclusive: 30.1%.

Question: How did the inhibition turn out when `CCOC(=O)c1cnc2ccc(OC)cc2c1NCCN1CCOCC1` was run?
Answer: Its inhibition is inconclusive: 10.2%.

Question: For `O=C(O)/C=C/C(=O)NCCc1ccc(Cl)cc1`, which inhibition is on record?
Answer: Its inhibition is inconclusive: 16%.

Question: With `COC(=O)c1nnn(CC(=O)Nc2ccc(C)c(F)c2)c1C(=O)OC` as the compound, how does the inhibition read?
Answer: Its inhibition is inconclusive: 6.6%.

Question: `COC(=O)C1(CCSC)NC(c2ccc(O)cc2)C2C(=O)N(c3ccc(F)cc3)C(=O)C21` (centres undefined) was tested. Which inhibition did it give?
Answer: Its inhibition is inconclusive: 11.4%.

Question: For `CCOC(=O)c1ccc(NC(=O)Nc2cc(C)on2)cc1`, which inhibition is on record?
Answer: Its inhibition is inactive: 0.9%.

Question: With `O=c1ccc(=O)n(-c2ccccc2)[nH]1` as the compound, how does the inhibition read?
Answer: The inhibition was inconclusive: -5.6%.

Question: For `COc1ccc(C(c2nnnn2Cc2ccccc2)N2CCN(c3ccccc3)CC2)cc1` (centres undefined), which inhibition is on record?
Answer: Its inhibition is inactive: -14.4%.

Question: Which inhibition does the source give for `CCOC(=O)c1c(NC(=O)CN2C(=O)C(=O)N(C(C)C)C2=O)sc(C)c1CC` here?
Answer: Its inhibition is inconclusive: -3.9%.

Question: For `CC(C)Sc1nnc([C@H](C)NC(=O)OC(C)(C)C)o1`, which inhibition is on record?
Answer: The inhibition was inconclusive: 3.7%.

Question: `CCN1CCN(c2ccc(S(=O)(=O)N3CCCCC3)cc2NC(=O)CC(NC(C)=O)c2ccccc2)CC1` (centres undefined) was tested. Which inhibition did it give?
Answer: The inhibition was inconclusive: -6.9%.

Question: For `CC1CCCCN1CCCNC(=O)c1ccc(N2CCCC2=O)cc1` (centres undefined), which inhibition is on record?
Answer: The inhibition was inactive: 5.4%.

Question: Which inhibition does the source give for `CN(CCCNC(=O)CCC(=O)N1CCOc2ccccc21)Cc1ccccc1` here?
Answer: The inhibition was inactive: -16.7%.

Question: For `CCC(=O)N1N=C(c2c(O)n(C)c(=O)n(C)c2=O)CC1c1ccccc1` (centres undefined), which inhibition is on record?
Answer: Its inhibition is inconclusive: -2.8%.

Question: Which inhibition does the source give for `Cc1occc1-c1nc(-c2ccccn2)no1` here?
Answer: Its inhibition is inconclusive: -3.2%.

Question: With `COc1cc(S(=O)(=O)Nc2ccccc2C)ccc1Cl` as the compound, how does the inhibition read?
Answer: Its inhibition is inactive: 2.9%.

Question: `COc1ccc(CCNC(=O)c2ccncc2)cc1OC` was tested. Which inhibition did it give?
Answer: Its inhibition is inconclusive: 17.9%.

Question: `O=C(Cn1nc2n(c1=O)-c1ccccc1SC2)N/N=C/c1cccnc1` was tested. Which inhibition did it give?
Answer: The inhibition was inconclusive: -12.9%.

Question: Which inhibition does the source give for `O=C1CCNc2c(Cl)cccc21` here?
Answer: The inhibition was inconclusive: -8.5%.

Question: For `Cc1[nH]n(C(N)=S)c(=O)c1N=Nc1cccc([N+](=O)[O-])c1C`, which inhibition is on record?
Answer: The inhibition was inconclusive: 20.3%.

Question: Which inhibition does the source give for `Cc1ccc2nsnc2c1S(=O)(=O)Nc1ccccc1C(=O)O` here?
Answer: Its inhibition is inconclusive: -8.9%.

Question: How did the inhibition turn out when `CCCCNC(=O)C[C@@H]1C[C@@]2(C(=O)OCC)CCC=C2N(CCC2=CCCCC2)C1=O` was run?
Answer: The inhibition was inactive: -6.5%.

Question: `C=CCCC(=O)NC1CC(C)(C)Cc2c1cnn2-c1ccc(OC)cc1` (centres undefined) was tested. Which inhibition did it give?
Answer: The inhibition was inconclusive: -26%.

Question: For `O=C(c1ccc(-n2cccc2)cc1)N1CCOCC1`, which inhibition is on record?
Answer: The inhibition was inconclusive: -29.8%.

Question: With `CNC(=O)CN(Cc1ccccc1)S(=O)(=O)c1ccc(Cl)cc1` as the compound, how does the inhibition read?
Answer: Its inhibition is inconclusive: 14.2%.

Question: How did the inhibition turn out when `Fc1cccc(CSc2nc3ncc(Cl)cc3[nH]2)c1` was run?
Answer: Its inhibition is inconclusive: -19.8%.

Question: How did the inhibition turn out when `Cc1c(C)c2ccc(OCC(=O)NCCCN3CCCC3=O)cc2oc1=O` was run?
Answer: The inhibition was inactive: -0.3%.

Question: Which inhibition does the source give for `Cc1[nH]c2ccccc2c1C(=O)C(C)Sc1nnc(C2CC2)o1` (centres undefined) here?
Answer: Its inhibition is inconclusive: 2.7%.

Question: How did the inhibition turn out when `O=C(Nc1ccccc1C(=O)Nc1ccccn1)c1cccc([N+](=O)[O-])c1` was run?
Answer: The inhibition was inconclusive: 5.3%.

Question: Which inhibition does the source give for `COc1ccc(S(=O)(=O)N2CCOCC2)c2ccccc12` here?
Answer: Its inhibition is inconclusive: 49.3%.

Question: How did the inhibition turn out when `O=C1/C(=C/c2cccs2)SC(=S)N1N1CCOCC1` was run?
Answer: Its inhibition is inconclusive: 25.9%.

Question: For `CS(=O)(=O)Nc1ccc(N2CCN(c3ccc(C(F)(F)F)cn3)CC2)nc1`, which inhibition is on record?
Answer: Its inhibition is inconclusive: 21.4%.

Question: For `Cc1cc(C)n(-c2ccc(C(=O)Nc3ccc(S(=O)(=O)NCc4ccco4)cc3)cc2)n1`, which inhibition is on record?
Answer: Its inhibition is inconclusive: 1.9%.

Question: `C=CCn1c(N)c(C(=O)N2CCOCC2)sc1=S` was tested. Which inhibition did it give?
Answer: The inhibition was inactive: 5.4%.

Question: For `CCOC(=O)CCC1(C(=O)OC)C(=O)CCCCCC=C1C(=O)OC` (centres undefined), which inhibition is on record?
Answer: Its inhibition is inactive: -15.3%.

Question: How did the inhibition turn out when `Cc1cccc(C)c1NC(=O)c1cccc(C(=O)Nc2c(C)cccc2C)n1` was run?
Answer: Its inhibition is inconclusive: 6.1%.

Question: With `COCCCNC(=S)Nc1ccc2c(c1)OCCO2` as the compound, how does the inhibition read?
Answer: Its inhibition is inactive: -3.1%.

Reference: PubChem BioAssay AID588497 (NMMLSC, 2011)
